# Test results from the supplement of paper PMC4604168 (melanoma cell lines).
# Some of the results follow. Many values rest on one well or one pass, so single values are uncertain.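 The apoptosis fraction was the count of cleaved-PARP antibody-stained nuclei relative to all DNA-stained nuclei, imaged in 1,536-well plates. Screening doses were set so most cells survived, and baseline and induced cleaved-PARP levels vary greatly across cell lines.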
# Test system: C32
# Assay: cleaved PARP positive nuclei fraction relative to DMSO control; melanoma cells; higher = more apoptosis
# Settings: library dose: low library concentration; 72 h
row,Structure (SMILES),cleaved PARP positive nuclei fraction
1,"CC1(C)CCC(c2ccc(Cl)cc2)=C(CN2CCN(c3ccc(C(=O)NS(=O)(=O)c4ccc(N[C@H](CCN5CCOCC5)CSc5ccccc5)c(S(=O)(=O)C(F)(F)F)c4)cc3)CC2)C1 + Nc1nc(F)nc2c1ncn2[C@@H]1O[C@H](CO)[C@@H](O)[C@@H]1O [fludarabine] (first compound 0.4 µM, partner dose 0.2 µM)",544%
2,"Cn1sc(=O)n(Cc2ccccc2)c1=O + C=CCNC1=C2C[C@@H](C)C[C@H](OC)[C@H](O)[C@@H](C)/C=C(\C)[C@H](OC(N)=O)[C@@H](OC)/C=C\C=C(/C)C(=O)NC(=CC1=O)C2=O [Tanespimycin] (first compound 0.4 µM, partner dose 0.002 µM)",85.4%
3,"Cn1cnc2c(F)c(Nc3ccc(Br)cc3Cl)c(C(=O)NOCCO)cc21 [selumetinib] + COc1ccc2c(c1)CCC1C2CCC2(C)C(NCCCCCCN3C(=O)C=CC3=O)CCC12 [U73122] (first compound 0.015 µM, partner dose 0.4 µM)",78.4%
4,"CCCCCCCCc1ccc(CCC(N)(CO)CO)cc1 [fingolimod] + CC(C)(C)c1cnc(CSc2cnc(NC(=O)C3CCNCC3)s2)o1 [SNS-032] (first compound 2 µM, partner dose 0.01 µM)",121%
5,"NC(=O)c1ccc(N(C(N)=O)c2c(F)cccc2F)nc1-c1ccc(F)cc1F + COCC[n+]1c2c(n(Cc3cnccn3)c1C)C(=O)c1ccccc1C2=O [YM155] (first compound 0.4 µM, partner dose 0.0004 µM)",72.4%
6,"NC1(c2ccc(-c3nc4ccn5c(=O)[nH]nc5c4cc3-c3ccccc3)cc2)CCC1 + CO[C@@H]1[C@H](N(C)C(=O)c2ccccc2)C[C@H]2O[C@]1(C)n1c3ccccc3c3c4c(c5c6ccccc6n2c5c31)C(=O)NC4 [Midostaurin] (first compound 0.4 µM, partner dose 0.08 µM)",154%
7,"CC1(C)CCC(c2ccc(Cl)cc2)=C(CN2CCN(c3ccc(C(=O)NS(=O)(=O)c4ccc(N[C@H](CCN5CCOCC5)CSc5ccccc5)c(S(=O)(=O)C(F)(F)F)c4)cc3)CC2)C1 + Cn1nnc2c(C(N)=O)ncn2c1=O [temozolomide] (first compound 0.4 µM, partner dose 2 µM)",130%
8,"CN(c1ncccc1CNc1nc(Nc2ccc3c(c2)CC(=O)N3)ncc1C(F)(F)F)S(C)(=O)=O + CO[C@@H]1[C@H](N(C)C(=O)c2ccccc2)C[C@H]2O[C@]1(C)n1c3ccccc3c3c4c(c5c6ccccc6n2c5c31)C(=O)NC4 [Midostaurin] (first compound 0.08 µM, partner dose 0.08 µM)",370%
9,"Cn1sc(=O)n(Cc2ccccc2)c1=O + c1cc(-c2cnn3cc(-c4ccc(OCCN5CCCCC5)cc4)cnc23)ccn1 [Dorsomorphin] (first compound 0.4 µM, partner dose 0.4 µM)",76.4%
10,"CC(=O)O[C@@]12CO[C@@H]1C[C@H](O)[C@@]1(C)C(=O)[C@H](O)C3=C(C)[C@@H](OC(=O)[C@H](O)[C@@H](NC(=O)OC(C)(C)C)c4ccccc4)C[C@@](O)([C@@H](OC(=O)c4ccccc4)[C@H]21)C3(C)C [Docetaxel] + N#Cc1c(O)c2c(-c3ccc(-c4ccccc4O)cc3)csc2[nH]c1=O [A769662] (first compound 0.0001 µM, partner dose 2 µM)",528%
11,"Cn1cnc2c(F)c(Nc3ccc(Br)cc3Cl)c(C(=O)NOCCO)cc21 [selumetinib] + OCCn1cc(-c2cnc3nnn(Cc4ccc5ncccc5c4)c3n2)cn1 [PF04217903] (first compound 0.015 µM, partner dose 1 µM)",104%
12,"Cn1cnc2c(F)c(Nc3ccc(Br)cc3Cl)c(C(=O)NOCCO)cc21 [selumetinib] + Oc1cc(-c2nc(-c3ccccc3)[nH]c2-c2ccncc2)ccc1Cl [L779450] (first compound 0.015 µM, partner dose 0.2 µM)",116%
13,"Cn1sc(=O)n(Cc2ccccc2)c1=O + CCCCCCCCCCCC1=C(O)C(=O)C=C(O)C1=O [Embelin] (first compound 0.4 µM, partner dose 1.2 µM)",88.5%
14,"CCN(CC)CCNC(=O)c1c(C)[nH]c(/C=C2\C(=O)Nc3ccc(F)cc32)c1C [sunitinib] + CCc1ccc(CCOc2ccc(CC3SC(=O)NC3=O)cc2)nc1 [pioglitazone] (first compound 0.4 µM, partner dose 2 µM)",91.3%

# Test system: CBRC008 (line from a melanoma biopsy)
# Assay: as above
# Settings: library dose: low library concentration; 72 h
row,Structure (SMILES),cleaved PARP positive nuclei fraction
1,"C[C@]1(O)C[C@@H](c2nc(-c3ccc4ccc(-c5ccccc5)nc4c3)c3c(N)nccn32)C1 + C[C@@H]1CCN(C(=O)CC#N)C[C@@H]1N(C)c1ncnc2[nH]ccc12 [CP690550] (first compound 0.4 µM, partner dose 1 µM)",67.2%
2,"Cn1sc(=O)n(Cc2ccccc2)c1=O + NCC(=O)Nc1ccc(-n2nc(C(F)(F)F)cc2-c2ccc3c(ccc4ccccc43)c2)cc1 [OSU03012] (first compound 0.4 µM, partner dose 1 µM)",113%
3,"Cn1sc(=O)n(Cc2ccccc2)c1=O + COc1cc2ncnc(Nc3ccc(Oc4ccccc4)cc3)c2cc1OC [SrcI1] (first compound 0.4 µM, partner dose 2 µM)",107%
4,"Cn1cnc2c(F)c(Nc3ccc(Br)cc3Cl)c(C(=O)NOCCO)cc21 [selumetinib] + Oc1nc(-c2ccc(C(F)(F)F)cc2)nc2c1CSCC2 [XAV939] (first compound 0.015 µM, partner dose 2 µM)",108%
5,"CCCCCCCCc1ccc(CCC(N)(CO)CO)cc1 [fingolimod] + O=C(CCCCCCC(=O)Nc1ccccc1)NO [vorinostat] (first compound 2 µM, partner dose 0.08 µM)",70.4%
6,"NC1(c2ccc(-c3nc4ccn5c(=O)[nH]nc5c4cc3-c3ccccc3)cc2)CCC1 + COc1cc2ncnc(Nc3ccc(Oc4ccccc4)cc3)c2cc1OC [SrcI1] (first compound 0.4 µM, partner dose 2 µM)",162%
7,"CCCCCCCCc1ccc(CCC(N)(CO)CO)cc1 [fingolimod] + Cc1ccc(NC(=O)c2cccc(N(C)C)c2)cc1NC(=O)c1ccc(O)cc1 [ZM336372] (first compound 2 µM, partner dose 2 µM)",87.7%
8,"Cn1sc(=O)n(Cc2ccccc2)c1=O + Cn1cc(/C=C2\C(=O)Nc3cccnc32)c2ccccc21 [GW441756] (first compound 0.4 µM, partner dose 0.4 µM)",126%
9,"CCN(CC)CCNC(=O)c1c(C)[nH]c(/C=C2\C(=O)Nc3ccc(F)cc32)c1C [sunitinib] + CC1(C)NC(=O)N(c2ccc([N+](=O)[O-])c(C(F)(F)F)c2)C1=O [nilutamide] (first compound 0.4 µM, partner dose 1 µM)",117%
10,"CN(c1ncccc1CNc1nc(Nc2ccc3c(c2)CC(=O)N3)ncc1C(F)(F)F)S(C)(=O)=O + COc1cc2c(Oc3ccc4[nH]c(C)cc4c3F)ncnc2cc1OCCCN1CCCC1 [cediranib] (first compound 0.08 µM, partner dose 0.4 µM)",63%
11,"C[C@@H](N)c1ccc(C(=O)Nc2ccnc3[nH]ccc23)cc1 + COc1cc2ncnc(Nc3ccc(Oc4ccccc4)cc3)c2cc1OC [SrcI1] (first compound 0.4 µM, partner dose 2 µM)",160%
12,"CCCCCCCCc1ccc(CCC(N)(CO)CO)cc1 [fingolimod] + Oc1cc(-c2nc(-c3ccccc3)[nH]c2-c2ccncc2)ccc1Cl [L779450] (first compound 2 µM, partner dose 0.2 µM)",57.3%
13,"C[C@@H](N)c1ccc(C(=O)Nc2ccnc3[nH]ccc23)cc1 + O=S(=O)(c1ccccc1)N(CC(F)(F)F)c1ccc(C(O)(C(F)(F)F)C(F)(F)F)cc1 [T0901317] (first compound 0.4 µM, partner dose 1.4 µM)",109%
14,"CN(c1ncccc1CNc1nc(Nc2ccc3c(c2)CC(=O)N3)ncc1C(F)(F)F)S(C)(=O)=O + O=c1cc(-c2cccc3c2Sc2ccccc2S3)oc(N2CCOCC2)c1 [KU55933] (first compound 0.08 µM, partner dose 1 µM)",463%
15,"C[C@]1(O)C[C@@H](c2nc(-c3ccc4ccc(-c5ccccc5)nc4c3)c3c(N)nccn32)C1 + CCc1ccc(CCOc2ccc(CC3SC(=O)NC3=O)cc2)nc1 [pioglitazone] (first compound 0.4 µM, partner dose 2 µM)",121%
16,"C[C@]1(O)C[C@@H](c2nc(-c3ccc4ccc(-c5ccccc5)nc4c3)c3c(N)nccn32)C1 + COc1ccc2c(c1)CCC1C2CCC2(C)C(NCCCCCCN3C(=O)C=CC3=O)CCC12 [U73122] (first compound 0.4 µM, partner dose 0.4 µM)",160%
17,"C[C@]1(O)C[C@@H](c2nc(-c3ccc4ccc(-c5ccccc5)nc4c3)c3c(N)nccn32)C1 + O=C1NC(=O)/C(=C/c2ccc(-c3ccc(F)cc3O)o2)S1 [AS252424] (first compound 0.4 µM, partner dose 1 µM)",242%
18,"CC1(C)CCC(c2ccc(Cl)cc2)=C(CN2CCN(c3ccc(C(=O)NS(=O)(=O)c4ccc(N[C@H](CCN5CCOCC5)CSc5ccccc5)c(S(=O)(=O)C(F)(F)F)c4)cc3)CC2)C1 + O=C(Nc1cccc(Cl)c1)Nc1ncc(CCNc2ncnc3ccsc23)s1 [SNS314] (first compound 0.4 µM, partner dose 0.0008 µM)",717%

# Copied from the listing (2 entries):
row,Structure (SMILES),cleaved PARP positive nuclei fraction
4,"Cn1cnc2c(F)c(Nc3ccc(Br)cc3Cl)c(C(=O)NOCCO)cc21 [selumetinib] + Oc1nc(-c2ccc(C(F)(F)F)cc2)nc2c1CSCC2 [XAV939] (first compound 0.015 µM, partner dose 2 µM)",108%
5,"CCCCCCCCc1ccc(CCC(N)(CO)CO)cc1 [fingolimod] + O=C(CCCCCCC(=O)Nc1ccccc1)NO [vorinostat] (first compound 2 µM, partner dose 0.08 µM)",70.4%
